Data as given in PubChem BioAssay AID1159578 (Peter MacCallum Cancer Centre, 2015)
Aim: 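Genome-wide hunt for genes controlling movement of lymphatic endothelial cells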 (primary screen). Cell system: human lymphatic endothelial cells. Reagent: siRNA pool against human genes, 40 nM. Timing: 48 h after transfection. Measurement: 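Cells stained with dye and imaged after a scratch; covered wound area and nuclei counted, duplicates averaged, migration set against mock wells and turned into a robust z-score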. Reading the numbers: migration robust z-score: higher = faster migration into the scratch; nuclei per well: higher = more cells in the well. Hit rule: 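Migration changed when robust z exceeds 2 or falls below -2 and mean nuclei number is at least 3300; otherwise not called changed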. Calls: active = migration changed; inactive = no migration change, or too few cells.
The whole screen tested about 18,000 reagents; this is a part drawn at random. Of all reagents, about 1,030 (5.7%) got an active call. 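Inactive calls also include pools with fewer than 3300 nuclei, whose migration was not assessed.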 The raw values are shown without normalisation. Not all columns of the deposit are shown. No sequences are given here.

| Target gene | migration robust z-score | migration class with cell-count check | nuclei per well, duplicate mean | Call |
| --- | --- | --- | --- | --- |
| DEFB107A (defensin beta 107A) | -1.21 | migration z between -2 and 2; enough cells | 5492 | inactive |
| LHFPL2 (LHFPL tetraspan subfamily member 2) | 0.24 | migration z between -2 and 2; enough cells | 5604 | inactive |
| GJB4 (gap junction protein beta 4) | -1.4 | migration z between -2 and 2; enough cells | 7238 | inactive |
| BEX5 (brain expressed X-linked 5) | 0 | migration z between -2 and 2; enough cells | 5434 | inactive |
| MCCD1 (mitochondrial coiled-coil domain 1) | -1 | migration z between -2 and 2; enough cells | 5685 | inactive |
| FHL3 (four and a half LIM domains 3) | 0.46 | migration z between -2 and 2; enough cells | 5550 | inactive |
| ZNF514 (zinc finger protein 514) | -0.47 | migration z between -2 and 2; enough cells | 4586 | inactive |
| TMEM126A (transmembrane protein 126A) | -2.81 | migration z below -2; enough cells | 4490 | active |
| TMCO5A (transmembrane and coiled-coil domains 5A) | -0.02 | migration z between -2 and 2; enough cells | 6442 | inactive |
| KLHL17 (kelch like family member 17) | 1.34 | migration z between -2 and 2; enough cells | 5935 | inactive |
| FABP4 (fatty acid binding protein 4) | -0.57 | migration z between -2 and 2; enough cells | 6099 | inactive |
| WDR17 (WD repeat domain 17) | 0.86 | migration z between -2 and 2; enough cells | 6274 | inactive |
| ZDHHC11 (zDHHC palmitoyltransferase 11) | 0.04 | migration z between -2 and 2; enough cells | 5378 | inactive |
| BNC2 (basonuclin zinc finger protein 2) | -0.32 | migration z between -2 and 2; enough cells | 3406 | inactive |
| ODF4 (outer dense fiber of sperm tails 4) | 0.78 | migration z between -2 and 2; enough cells | 6435 | inactive |
| RFFL | 1.17 | migration z between -2 and 2; enough cells | 6016 | inactive |
| SLC7A5 | 1.82 | migration z between -2 and 2; enough cells | 5088 | inactive |
| METAP1D (methionyl aminopeptidase type 1D, mitochondrial) | 1.35 | migration z between -2 and 2; enough cells | 5691 | inactive |
| STK17B (serine/threonine kinase 17b) | -0.42 | migration z between -2 and 2; enough cells | 5298 | inactive |
| BDH2 (3-hydroxybutyrate dehydrogenase 2) | -2.6 | migration z below -2; enough cells | 3850 | active |
| ST8SIA2 (ST8 alpha-N-acetyl-neuraminide alpha-2,8-sialyltransferase 2) | -0.52 | migration z between -2 and 2; enough cells | 5586 | inactive |
| NUBP1 (NUBP iron-sulfur cluster assembly factor 1, cytosolic) | -0.1 | migration z between -2 and 2; enough cells | 6304 | inactive |
| NTF4 (neurotrophin 4) | 0.18 | migration z between -2 and 2; enough cells | 5069 | inactive |
| RPS27L (ribosomal protein S27 like) | 1.27 | migration z between -2 and 2; enough cells | 6470 | inactive |
| ALDH3B2 (aldehyde dehydrogenase 3 family member B2) | 0.03 | migration z between -2 and 2; enough cells | 5306 | inactive |
| FBXO10 (F-box protein 10) | -0.47 | migration z between -2 and 2; enough cells | 5724 | inactive |
| ST6GAL1 (ST6 beta-galactoside alpha-2,6-sialyltransferase 1) | -0.73 | migration z between -2 and 2; enough cells | 3906 | inactive |
| MYOG (myogenin) | -0.81 | migration z between -2 and 2; enough cells | 6422 | inactive |
| MAGEE2 (MAGE family member E2) | -0.8 | migration z between -2 and 2; enough cells | 6264 | inactive |
| DDI1 (DDI proteasomal shuttling factor 1) | -1.35 | migration z between -2 and 2; enough cells | 3667 | inactive |
| ADAMTS10 (ADAM metallopeptidase with thrombospondin type 1 motif 10) | -1.32 | migration z between -2 and 2; enough cells | 5400 | inactive |
| TRMT61A (tRNA methyltransferase 61A) | -0.7 | migration z between -2 and 2; enough cells | 5722 | inactive |
| ATP6V0A2 (ATPase H+ transporting V0 subunit a2) | -0.19 | migration z between -2 and 2; enough cells | 6198 | inactive |
| PCDHGA1 (protocadherin gamma subfamily A, 1) | -0.22 | migration z between -2 and 2; enough cells | 5186 | inactive |
| AFAP1L1 (actin filament associated protein 1 like 1) | 0.18 | migration z between -2 and 2; enough cells | 5918 | inactive |
| SYNE1 (spectrin repeat containing nuclear envelope protein 1) | 0.6 | migration z between -2 and 2; enough cells | 6370 | inactive |
| PRMT6 (protein arginine methyltransferase 6) | -1.4 | migration z between -2 and 2; enough cells | 5836 | inactive |
| ITGB4 (integrin subunit beta 4) | 0.96 | migration z between -2 and 2; enough cells | 4426 | inactive |
| CBR3 (carbonyl reductase 3) | -0.34 | migration z between -2 and 2; enough cells | 5954 | inactive |

2 neighbouring entries already listed, for reference:
| Target gene | migration robust z-score | migration class with cell-count check | nuclei per well, duplicate mean | Call |
| --- | --- | --- | --- | --- |
| DEFB107A (defensin beta 107A) | -1.21 | migration z between -2 and 2; enough cells | 5492 | inactive |
| LHFPL2 (LHFPL tetraspan subfamily member 2) | 0.24 | migration z between -2 and 2; enough cells | 5604 | inactive |
